In PMC7386655, “Spontaneous mutations that confer resistance to 2-deoxyglucose act through Hxk2 and Snf1 pathways to regulate gene expression and HXT endocytosis” (PLoS Genetics, 2020):
These are yes or no findings as the source states them, for the method shown. Some results given as binding are weak or reduced against the parent protein; the word gives no strength.

By UniProt entry, the sequences of proteins in these tests, tags left out. Where a name states a change or a piece, a line headed by the entry shows the natural chain unless it says otherwise.
UniProt P32598: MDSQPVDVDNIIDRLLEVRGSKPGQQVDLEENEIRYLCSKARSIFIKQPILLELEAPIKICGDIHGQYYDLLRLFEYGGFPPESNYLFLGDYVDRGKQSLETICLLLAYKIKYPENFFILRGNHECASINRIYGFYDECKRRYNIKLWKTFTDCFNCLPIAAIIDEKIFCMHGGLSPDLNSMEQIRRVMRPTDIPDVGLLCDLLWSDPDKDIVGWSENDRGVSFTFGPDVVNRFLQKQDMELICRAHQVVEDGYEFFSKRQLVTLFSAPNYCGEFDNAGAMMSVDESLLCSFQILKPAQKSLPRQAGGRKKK

Assays:
Test in all cases: two-hybrid; yeast two-hybrid; growth on medium with 2% glucose lacking histidine, GAL1-HIS3 reporter; Snf1 and Glc7 fused to the Gal4 DNA binding domain (pGBT9), Reg1 fused to the Gal4 activation domain (pACT2)
Snf1 (S. cerevisiae) = target: T1, Snf1 (S. cerevisiae) (UniProt P06782)
T1 sequence: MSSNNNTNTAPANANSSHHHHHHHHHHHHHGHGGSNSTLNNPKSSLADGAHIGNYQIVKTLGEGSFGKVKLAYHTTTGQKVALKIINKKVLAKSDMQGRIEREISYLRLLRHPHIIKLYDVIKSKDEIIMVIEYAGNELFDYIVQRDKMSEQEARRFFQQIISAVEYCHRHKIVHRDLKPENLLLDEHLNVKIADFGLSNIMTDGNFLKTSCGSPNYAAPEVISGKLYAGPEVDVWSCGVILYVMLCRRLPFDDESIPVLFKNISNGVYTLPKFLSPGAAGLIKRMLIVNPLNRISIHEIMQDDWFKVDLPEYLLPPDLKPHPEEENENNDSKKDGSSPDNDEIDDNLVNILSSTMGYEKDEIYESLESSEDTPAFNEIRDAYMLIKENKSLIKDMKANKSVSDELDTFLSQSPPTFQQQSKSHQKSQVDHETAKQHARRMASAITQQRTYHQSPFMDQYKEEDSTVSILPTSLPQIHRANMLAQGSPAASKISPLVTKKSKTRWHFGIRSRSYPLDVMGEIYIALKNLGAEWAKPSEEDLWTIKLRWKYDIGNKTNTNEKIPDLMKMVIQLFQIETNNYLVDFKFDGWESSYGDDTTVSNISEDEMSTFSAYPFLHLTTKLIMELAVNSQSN

Glc7 (S. cerevisiae) = Glc7 (S. cerevisiae) (UniProt P32598)
[1] = target: Glc7-Q48K (S. cerevisiae) (UniProt P32598)

B1: Reg1 (protein, UniProt Q00816 1-1014)
chain: MSTNLANYFAGKKDIENEHVNRNASHESNSKSDVKISGNDNDNDEDMGPSVSMAVQAKNDDDFHKSTFNLKRTRSMGLLDEYIDPTKKLLGRSDDLYDNDNEYYDNSSNNSSSNSSDDDYDDGYQEHSTSVSPPPADNDSYLIPQDDNDVVVEPERHVDYLSHEWKESEISNSWKYIILKKKKRDVDLVNAARLENASWRTWAKARNNLKTVSPEVVNWSKDSDVTWLYGPIVRDSEGNAQSEEEHDLERGYGSDDENSKRISMPTKNSKSIAAAPKPILKKRTVTEIIEDNALWKLNEARKHMTEMKHASVIMDPNGNKNVHDDFDALAAQVNAQYYHYPKESNSSVSLKSQHSDKKDNSTIPNPVGENSNGGGDKGEEDLHLKSALHVQNNRSTAQSNKSILENSTNDRKANLDQNLNSPDNNRFPSSTSSSNRDNENNSMGLSSILTSNPSEKSNKPTKNRHIHFNDRVEQCMALRYPASQSEDDESDDENKQYVDVNNNANVTTINNNRTPLLAIQHKSIPINSATEHLNKNTSDDDTSSQSSSSSHSDDEEHGGLYINARFSRRSDSGVHSPITDNSSVASSTTSRAHVRPIIKLLPDTTLNYGSDEESDNGEFNGYGNAVSHNVNTSRGYDYIYDYNSVYTGDTSSFLPVDSCDIVDVPEGMDLQTAIADDNASNYEFNNAVESKEKHVPQLHKASANNTTRQHGSHMLLYDDDNYSSSSDSEQQFIEDSQYNSSDDEEEEDDDDQEVDDNHDEGLSLRRTLSLGKSGSTNSLYDLAQPSLSSATPQQKNPTNFTGGKTDVDKDAQLAVRPYPLKRNSSSGNFIFNSDSEEESSSEEEQRPLPANSQLVNRSVLKGSVTPANISSQKKKALPKQPKASDSSQSFRIVNNTPSPAEVGASDVAIEGYFSPRNESIKSVVSGGNMMDHQDHSEMDTLAKGFENCHINNASKLKDKKVDSVQTTRKEASLTDSSNESLHKVVQNARGMASKYLHSWKKSDVKPQENGNDSS
binding (Snf1 (S. cerevisiae)): binds | binding (Glc7 (S. cerevisiae)): binds | binding [1]: binds

B2: Reg1-P231L (protein, UniProt Q00816 1-1014)
chain: MSTNLANYFAGKKDIENEHVNRNASHESNSKSDVKISGNDNDNDEDMGPSVSMAVQAKNDDDFHKSTFNLKRTRSMGLLDEYIDPTKKLLGRSDDLYDNDNEYYDNSSNNSSSNSSDDDYDDGYQEHSTSVSPPPADNDSYLIPQDDNDVVVEPERHVDYLSHEWKESEISNSWKYIILKKKKRDVDLVNAARLENASWRTWAKARNNLKTVSPEVVNWSKDSDVTWLYGLIVRDSEGNAQSEEEHDLERGYGSDDENSKRISMPTKNSKSIAAAPKPILKKRTVTEIIEDNALWKLNEARKHMTEMKHASVIMDPNGNKNVHDDFDALAAQVNAQYYHYPKESNSSVSLKSQHSDKKDNSTIPNPVGENSNGGGDKGEEDLHLKSALHVQNNRSTAQSNKSILENSTNDRKANLDQNLNSPDNNRFPSSTSSSNRDNENNSMGLSSILTSNPSEKSNKPTKNRHIHFNDRVEQCMALRYPASQSEDDESDDENKQYVDVNNNANVTTINNNRTPLLAIQHKSIPINSATEHLNKNTSDDDTSSQSSSSSHSDDEEHGGLYINARFSRRSDSGVHSPITDNSSVASSTTSRAHVRPIIKLLPDTTLNYGSDEESDNGEFNGYGNAVSHNVNTSRGYDYIYDYNSVYTGDTSSFLPVDSCDIVDVPEGMDLQTAIADDNASNYEFNNAVESKEKHVPQLHKASANNTTRQHGSHMLLYDDDNYSSSSDSEQQFIEDSQYNSSDDEEEEDDDDQEVDDNHDEGLSLRRTLSLGKSGSTNSLYDLAQPSLSSATPQQKNPTNFTGGKTDVDKDAQLAVRPYPLKRNSSSGNFIFNSDSEEESSSEEEQRPLPANSQLVNRSVLKGSVTPANISSQKKKALPKQPKASDSSQSFRIVNNTPSPAEVGASDVAIEGYFSPRNESIKSVVSGGNMMDHQDHSEMDTLAKGFENCHINNASKLKDKKVDSVQTTRKEASLTDSSNESLHKVVQNARGMASKYLHSWKKSDVKPQENGNDSS
binding (Snf1 (S. cerevisiae)): binds
